Test results: the supplement of paper PMC7024190
Where a name gives a salt, the structure may show the parent alone. The list shows a part of the results. Repeats in this data set agree poorly, so a single value says little.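 The cells were human embryonic kidney cells carrying a Renilla luciferase gene, driven by the HSV-TK promoter, on a plasmid put in briefly by transfection. This is the first-round screen of about ten thousand compounds, looking for ones that raise reporter output.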

The molecules below were run on HEK 293FT (assay: log relative Renilla luciferase luminescence (reporter expression vs reference, reference not stated) (log (base not stated)); higher = higher recombinant reporter expression). Conditions: 10 µM; time after transfection 48 h.

**Q.** Which log does the source give for `CC(=O)Nc1c(I)c(C(=O)N[C@H]2C(O)O[C@H](CO)[C@@H](O)[C@@H]2O)c(I)c(N(C)C(C)=O)c1I` (stereo not given in full) [Metrizamide] here?
**A.** -0.0173

**Q.** Which log does the source give for `CCOC1O[C@H]([C@@H](COCc2ccccc2)OCc2ccccc2)[C@H](OCc2ccccc2)[C@H]1O` (stereo not given in full) [Tribenoside] here?
**A.** -0.819

**Q.** With `CNCC(O)c1ccc(O)c(O)c1` (stereo not given) [Racepinephrine HCl] as the molecule, how does the log read?
**A.** 0.251

**Q.** How did the log turn out when `Cc1cc2cc3c(C)cc(=O)oc3c(C)c2o1` [Trioxsalen] was run?
**A.** -0.00375

**Q.** How did the log turn out when `CC(=O)Nc1nnc(S(N)(=O)=O)s1` [Acetazolamide] was run?
**A.** -0.0288

**Q.** For `Clc1ccc2nsnc2c1NC1=NCCN1` [Tizanidine HCl], which log is on record?
**A.** -0.0275

**Q.** For `CCCCOc1cc(C(=O)OCCN(CC)CC)ccc1N` [Benoxinate hydrochloride], which log is on record?
**A.** 0.0638

**Q.** With `C[C@]12CC[C@@H]3c4ccc(O)cc4C[C@@H](CCCCCCCCC[S+]([O-])CCCC(F)(F)C(F)(F)F)[C@H]3[C@@H]1CC[C@@H]2O` (stereo not given in full) [Fulvestrant] as the molecule, how does the log read?
**A.** 0.0127

**Q.** Which log does the source give for `CO/N=C(\C(=O)N[C@@H]1C(=O)N2C(C(=O)O)=C(COC(C)=O)CS[C@H]12)c1csc(N)n1` [Cefotaxime sodium salt] here?
**A.** 0.129

**Q.** `CN1CCN2c3ncccc3Cc3ccccc3C2C1` (stereo not given) [Mirtazapine] was tested. Which log did it give?
**A.** 0.114

**Q.** Which log does the source give for `CC(C)[C@H](N)C(=O)OCCOCn1cnc2c(=O)nc(N)[nH]c21` [Valacyclovir hydrochloride] here?
**A.** 0.0241

**Q.** For `CC1(C)O[C@@H]2C[C@H]3[C@@H]4C[C@H](F)C5=CC(=O)C=C[C@]5(C)[C@@]4(F)[C@@H](O)C[C@]3(C)[C@]2(C(=O)CO)O1` [Fluocinolone acetonide], which log is on record?
**A.** 0.0824

**Q.** For `COc1cc(NS(=O)(=O)c2ccc(N)cc2)ncn1` [Sulfamonomethoxine], which log is on record?
**A.** -0.238

**Q.** With `Cc1cc(C)nc(NS(=O)(=O)c2ccc(N)cc2)n1` [Sulfamethazine sodium salt] as the molecule, how does the log read?
**A.** 0.0449

**Q.** With `CN(C(=O)CN(CCO)CC(=O)N(C)C(C)(C)Cc1ccccc1)C(C)(C)Cc1ccccc1` [Oxethazaine] as the molecule, how does the log read?
**A.** -0.1

**Q.** For `COC(=O)N/N=C/c1c[n+]([O-])c2ccccc2[n+]1[O-]` [Carbadox], which log is on record?
**A.** -0.00526

**Q.** `CC(C(O)c1ccc(O)cc1)N1CCC(Cc2ccccc2)CC1` (stereo not given) [Ifenprodil tartrate] was tested. Which log did it give?
**A.** 0.127

**Q.** For `COc1ccc(Cl)cc1C(=O)NCCc1ccc(S(=O)(=O)NC(=O)NC2CCCCC2)cc1` [Glibenclamide], which log is on record?
**A.** 0.177

**Q.** How did the log turn out when `CC#C[C@]1(O)CC[C@H]2[C@@H]3CCC4=CC(=O)CCC4=C3[C@@H](c3ccc(N(C)C)cc3)C[C@@]21C` [Mifepristone] was run?
**A.** 0.0967

**Q.** With `CCCOc1ccccc1-c1nc2[nH]nnc2c(=O)[nH]1` [Zaprinast] as the molecule, how does the log read?
**A.** 0.0943
